Reference: article PMC11786039
Results are given in words; binding and its absence hold for the method and conditions named. Binding seen in cells or lysates may run through a third protein. Some binding calls cover weakened binding; strength is not graded here.

The chains behind the UniProt entries cited, without tags or fusion partners. Residues count along the entry.
UniProt P30101, residues 25-505: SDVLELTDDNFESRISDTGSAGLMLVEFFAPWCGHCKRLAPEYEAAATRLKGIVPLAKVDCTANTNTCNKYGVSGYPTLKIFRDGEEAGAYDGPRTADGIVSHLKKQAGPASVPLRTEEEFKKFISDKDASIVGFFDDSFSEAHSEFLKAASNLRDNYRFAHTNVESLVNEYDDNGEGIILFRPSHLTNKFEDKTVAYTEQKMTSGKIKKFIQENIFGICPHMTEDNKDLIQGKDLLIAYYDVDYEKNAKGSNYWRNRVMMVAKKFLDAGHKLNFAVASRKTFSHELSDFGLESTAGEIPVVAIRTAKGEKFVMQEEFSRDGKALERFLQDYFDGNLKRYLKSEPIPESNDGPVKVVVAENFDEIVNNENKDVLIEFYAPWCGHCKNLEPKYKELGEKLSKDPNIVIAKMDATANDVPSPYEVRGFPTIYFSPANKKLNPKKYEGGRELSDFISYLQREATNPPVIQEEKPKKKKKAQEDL

Target: T1, aurora kinase C (AURKC) (human (endogenous in SW839 and SKRC-39)) (UniProt Q9UQB9)
T1 sequence: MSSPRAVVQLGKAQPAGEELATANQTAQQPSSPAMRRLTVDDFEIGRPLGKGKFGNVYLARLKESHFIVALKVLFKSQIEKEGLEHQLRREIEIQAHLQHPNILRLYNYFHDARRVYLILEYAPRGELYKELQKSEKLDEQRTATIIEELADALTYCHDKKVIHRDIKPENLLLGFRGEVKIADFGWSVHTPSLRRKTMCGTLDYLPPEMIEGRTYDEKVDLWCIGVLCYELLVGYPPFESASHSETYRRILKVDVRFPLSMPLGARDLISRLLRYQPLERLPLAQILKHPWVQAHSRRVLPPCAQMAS
Assay: co-IP; AURKC antibody added to 200 uL lysate of SW839 or SKRC-39 cells, overnight at 4°C, magnetic beads, 5 washes with cell lysate; ERp57 detected by western blot

Endoplasmic reticulum resident protein 57 (ERp57) (from UniProt P30101 25-505)
binding: binds
